Not every detail of the peptide structures is certain; ends, links or a residue may be inferred.
Legend:
[1] = tested on: Leishmania major; test: Effect on the leishmanicidal activity of murine peritoneal macrophage (3H-thymidine incorporation by living parasites); assay type: cell-based; settings: for cpm (counts per minute), 3H-thymidine incorporation by living parasites: control 18,273
Method: Effect on the leishmanicidal activity of murine peritoneal macrophage The peritoneal cells collected as described above were seeded in 96-well flat bottom plates (Nunc, Roskiled, DK) at a concentration of 10^5 […]; and incubated per 24 hours at 37° C. At the end of the treatment, the cells not adherent to the well were separated and discharged, whereas the adherent cells were washed three time with culture medium and incubated for 24 hours with the compounds in question, then the cells were infected through a 24 hours incubation with promastigotes of Leishmania major (L. major, PVL49 strain supplied by Dr. Neal R. A., London School of Hygiene and Tropical Medicine, London, UK). At the end of the infection treatment each well was added with 100 μl of a 0.01% solution od sodium dodecylsulphate in RPMI 1640, and the plates were incubated for 30 minutes at 37° C. The Schneider's culture medium (Schneider Drosophila medium, Gibco Lab., Grand Island, N.Y., USA) with 30% of FCS was added. Each well was added with 1 μCi of ^3 H-thymidine, and a 72 hours incubation was carried out at 37° C. The incorporation of radioactivity by the living parasites inside the peritoneal cells, which is correlated to the infection degree and consequently to the leishmanicidal activity of the cells, was measured by collecting the cells by means of a cell-harvester and measuring the radioactivity with liquid scintillation β-counter.

[2] = tested on: murine splenocytes; test: Stimulation of in vitro IFN-.tau. production by murine splenocytes (ELISA); assay type: cell-based, BALB/C mice; settings: 24 h; for IFN-.tau. production, Stimulation index: with respect to control; for IFN-.tau. production, U/ml: control 31 (Ex. 1, Ex. 2), 41 (Ex. 3)
Method: Stimulation of in vitro IFN-.tau.production by murine splenocytes The splenic cells were obtained from spleen of BALB/C mice as single cells suspension. The splenocytes thus obtained were resuspended in RPMI 1640 culture medium (Flow Lab., Hertz, UK) containing 5% of fetal calf serum (FCS) (HyClone, ST, Utah, USA) at a final concentrazione of 10^7 cells/ml, and incubated in 96-well plates for 24 hours at 37° C. in the presence of the tested compounds at the indicated concentration. At the end of the incubation the supernatant was collected, filtered by […] filter and freezed to -80° C. until the time of the test carried out by ELISA commercial kit (Genzyme, Boston, Mass., USA).

[3] = tested on: murine peritoneal cells; test: Stimulation of the nitric oxide by murine peritoneal cells (chemiluminescence); assay type: cell-based, BALB/C mice; settings: 96 h, with LPS 30 μg/ml; for nitric oxide, Stimulation index: with respect to control; for nitric oxide content: control 20
Method: Stimulation of the nitric oxide by murine peritoneal cells The peritoneal cells were obtained as described in the previous test, and incubated for 96 hours at 37° C. in the presence of the compounds in question and of lipopolysaccharide at a concentration of 30 μg/ml. At the end of the treatment the supernatants were collected and the nitric oxide content was determined by the chemiluminescence test described by Palmer R. M. J. et al, Nature, 327, 524, 1987.

[4] = tested on: murine peritoneal macrophages; test: Stimulation of IL-1 production by murine peritoneal macrophages (ELISA); assay type: cell-based, BALB/C mice; settings: 96 h; for IL-1 production, Stimulation index: with respect to control; for IL-1 production, U/ml: control 15
Text: Stimulation of IL-1 production by murine peritoneal macrophages Murine peritoneal macrophages were obtained by inoculation of a solution of hydrolized starch (BDH Chemicals, Poole, Dorset, UK) into the peritoneal cavity of BALB/C mice, three days before sacrificing the animals. The peritoneal cells were then collected by washing the peritoneal cavity with a solution of RPMI 1640 containing 10% of FCS, and resuspended in the same solution at a concetration of 10^6 cells/ml in 96-well plates. The incubation was performed for 96 hours at 37° C. in the presence of the compounds in question. At the end of the treatment the supernatants were collected and used for dosing cytokine by means of a suitable ELISA commerical kit (Genzyme, Boston, Mass., USA).

| SMILES | % reduction of infection ([1]; 0.1 μg/ml (minimum dose used)) | cpm (counts per minute), 3H-thymidine incorporation by living parasites ([1]; 0.1 μg/ml) | % reduction of infection ([1]; 1.0 μg/ml) | cpm (counts per minute), 3H-thymidine incorporation by living parasites ([1]; 1.0 μg/ml) | % reduction of infection ([1]; 10.0 μg/ml) | cpm (counts per minute), 3H-thymidine incorporation by living parasites ([1]; 10.0 μg/ml) | IFN-.tau. production, Stimulation index ([2]; 0.1 μg/ml) | IFN-.tau. production, U/ml ([2]; 0.1 μg/ml) | IFN-.tau. production, Stimulation index ([2]; 1.0 μg/ml) | IFN-.tau. production, U/ml ([2]; 1.0 μg/ml) | IFN-.tau. production, Stimulation index ([2]; 10.0 μg/ml) | IFN-.tau. production, U/ml ([2]; 10.0 μg/ml) | nitric oxide, Stimulation index ([3]; 0.01 μg/ml) | nitric oxide content ([3]; 0.01 μg/ml) | nitric oxide, Stimulation index ([3]; 0.1 μg/ml) | nitric oxide content ([3]; 0.1 μg/ml) | nitric oxide, Stimulation index ([3]; 1.0 μg/ml) | nitric oxide content ([3]; 1.0 μg/ml) | nitric oxide, Stimulation index ([3]; 10.0 μg/ml) | nitric oxide content ([3]; 10.0 μg/ml) | also measured |
| --- | --- | --- | --- | --- | --- | --- | --- | --- | --- | --- | --- | --- | --- | --- | --- | --- | --- | --- | --- | --- | --- |
| CC(C)C[C@H](NC(=O)[C@@H]1CCCN1C(=O)C(CCCCN)C(=O)N[C@@H](N)[C@@H](C)O)C(=O)O (stereo partly drawn) [Example 2, H-gThr-(R,S)mLys-Pro-Leu-OH.AcOH] | 4% | 17,568 cpm | 34% | 11,991 cpm | 42% | 10,582 cpm | 1.8 | 57 U/ml | 1.7 | 52 U/ml | 1.9 | 60 U/ml | 4.3 | 85 nmol/mL | 3.1 | 61 nmol/mL | 3.3 | 66 nmol/mL | 4.0 | 79 nmol/mL | IL-1 production, Stimulation index ([4]; 0.01 μg/ml): 6.0; IL-1 production, U/ml ([4]; 0.01 μg/ml): 90 U/ml; IL-1 production, Stimulation index ([4]; 0.1 μg/ml): 4.0; IL-1 production, U/ml ([4]; 0.1 μg/ml): 60 U/ml; IL-1 production, Stimulation index ([4]; 1.0 μg/ml): 3.1; IL-1 production, U/ml ([4]; 1.0 μg/ml): 47 U/ml; IL-1 production, Stimulation index ([4]; 10.0 μg/ml): 3.3; IL-1 production, U/ml ([4]; 10.0 μg/ml): 50 U/ml |
| C[C@@H](O)[C@H](N)NC(=O)C(CCCCN)C(=O)N1CCC[C@H]1C(=O)N[C@@H](CCC(N)=O)C(=O)O (stereo partly drawn) [Example 3, H-gThr-(R,S)mLys-Pro-Gln-OH.AcOH] | -3% | 18,826 cpm | 54% | 8,377 cpm | 57% | 7,842 cpm | 1.5 | 60 U/ml | 1.5 | 60 U/ml | 1.7 | 68 U/ml | 2.5 | 50 nmol/mL | 3.0 | 60 nmol/mL | 3.3 | 66 nmol/mL | 4.4 | 88 nmol/mL | IL-1 production, Stimulation index ([4]; 0.01 μg/ml): 10.0; IL-1 production, U/ml ([4]; 0.01 μg/ml): 150 U/ml; IL-1 production, Stimulation index ([4]; 0.1 μg/ml): 10.7; IL-1 production, U/ml ([4]; 0.1 μg/ml): 160 U/ml; IL-1 production, Stimulation index ([4]; 1.0 μg/ml): 10.3; IL-1 production, U/ml ([4]; 1.0 μg/ml): 155 U/ml; IL-1 production, Stimulation index ([4]; 10.0 μg/ml): 9.3; IL-1 production, U/ml ([4]; 10.0 μg/ml): 140 U/ml |

— patent US5578575A, “Partially modified and retro-inverted tetrapeptides analogues of C-reactive protein fragments” (Italfarmaco S.P.A., priority 1992, dated 1996)
